PMC5992723

Chains of the proteins cited; added tags and fusions are not shown. Lines headed by an entry give the natural chain unless they say otherwise; changes in a name come on top.
UniProt P05556: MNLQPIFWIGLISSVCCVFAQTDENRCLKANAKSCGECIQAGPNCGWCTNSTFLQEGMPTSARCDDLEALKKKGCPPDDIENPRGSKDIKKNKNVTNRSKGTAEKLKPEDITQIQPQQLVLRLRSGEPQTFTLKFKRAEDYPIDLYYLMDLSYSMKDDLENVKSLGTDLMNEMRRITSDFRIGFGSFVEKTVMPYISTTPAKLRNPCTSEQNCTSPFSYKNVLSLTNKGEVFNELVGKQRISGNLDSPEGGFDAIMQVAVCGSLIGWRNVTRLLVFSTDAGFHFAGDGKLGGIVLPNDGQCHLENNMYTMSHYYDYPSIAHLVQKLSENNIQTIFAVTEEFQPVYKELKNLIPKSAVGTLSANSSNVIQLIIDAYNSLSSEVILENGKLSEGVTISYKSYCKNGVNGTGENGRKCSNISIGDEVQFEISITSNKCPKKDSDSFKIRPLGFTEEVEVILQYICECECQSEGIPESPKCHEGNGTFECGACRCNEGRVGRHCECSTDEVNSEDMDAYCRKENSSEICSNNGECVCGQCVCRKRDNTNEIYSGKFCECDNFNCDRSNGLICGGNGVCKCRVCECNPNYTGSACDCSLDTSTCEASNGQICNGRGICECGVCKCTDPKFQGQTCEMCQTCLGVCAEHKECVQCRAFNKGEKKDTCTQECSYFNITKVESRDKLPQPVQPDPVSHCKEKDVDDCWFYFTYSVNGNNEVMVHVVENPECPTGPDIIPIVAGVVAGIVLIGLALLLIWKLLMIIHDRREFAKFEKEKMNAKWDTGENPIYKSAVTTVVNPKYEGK
UniProt P35613: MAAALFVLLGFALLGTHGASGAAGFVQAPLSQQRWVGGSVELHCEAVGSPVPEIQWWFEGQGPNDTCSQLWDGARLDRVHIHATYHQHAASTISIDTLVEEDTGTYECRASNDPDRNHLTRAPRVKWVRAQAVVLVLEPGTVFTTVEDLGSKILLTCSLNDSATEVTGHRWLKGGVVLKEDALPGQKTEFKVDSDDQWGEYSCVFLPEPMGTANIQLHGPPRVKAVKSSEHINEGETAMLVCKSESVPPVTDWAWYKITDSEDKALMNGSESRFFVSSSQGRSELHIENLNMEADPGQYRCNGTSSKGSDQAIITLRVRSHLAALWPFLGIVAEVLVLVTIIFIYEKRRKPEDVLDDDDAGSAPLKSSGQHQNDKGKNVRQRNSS

Legend:
[1] = biological target: integrin β1 (human (endogenous in Hep-2)) (UniProt P05556); experiment: co-IP; Hep-2 cell lysates incubated with anti-integrin β1 or anti-CD147 antibody overnight at 4 °C, protein A/G agarose beads 4 h at 4 °C, washed three times, western blot; endogenous proteins
[2] = biological target: CD147 (human (endogenous in Hep-2)) (UniProt P35613); experiment: as above

binding [1] | binding [2] | Substance
binds |  | CD147 (from UniProt P35613-2)
 | binds | integrin β1 (from UniProt P05556 21-798) (receptor)

No constants are given. Whether binding was seen depends on the method and setting. In cells and extracts the contact can be indirect. Binding can be weak; no strength is given.
